Drawing on paper PMC7819943, “Rice protein-binding microarrays: a tool to detect cis-acting elements near promoter regions in rice”, this text covers binding signal for 23 sequences.

Sequences of proteins named here, by UniProt entry; tags and fusion partners are left off.
UniProt Q0JBA9, entry or part of it: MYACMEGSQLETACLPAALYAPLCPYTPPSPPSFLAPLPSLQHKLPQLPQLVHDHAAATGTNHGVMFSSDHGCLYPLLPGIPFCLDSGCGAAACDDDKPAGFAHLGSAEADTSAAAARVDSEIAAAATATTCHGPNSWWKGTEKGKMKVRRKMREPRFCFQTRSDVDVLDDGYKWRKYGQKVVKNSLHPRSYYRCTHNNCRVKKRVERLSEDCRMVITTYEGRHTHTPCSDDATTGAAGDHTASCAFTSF

The list shows a part of the results.

The test concerns the target OsWRKY34 (Oryza sativa, UniProt Q0JBA9 1-250). Kind of test: protein-binding microarray (RPBM); PBS, 2% BSA, 51.3 ng/ul salmon testes DNA, 50 uM zinc acetate, 200 nM TF, 25 C, 1 h; high values mean tight binding. Particulars: protein: recombinant; tags: N-terminal polyhistidine and DsRed monomer fusion (pET32a); label: CyDye5-dUTP incorporated in the synthesized complementary strand; 3' TTTTT single-stranded linker to array surface; dsDNA, one strand shown. The method in brief: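 A custom Agilent array was converted to double-stranded form by primer extension with Cy5-dUTP and blocked with 2% BSA. Protein at 200 nM in PBS with 2% BSA, salmon testes DNA and 50 µM zinc acetate was applied for 1 h at 25 °C, followed by washing. The proteins were polyhistidine–DsRed N-terminal fusions of transcription factors, expressed in E. coli BL21-CodonPlus and Ni–NTA-purified. The binding signal is per-feature fluorescence intensity (arbitrary units) from an Axon 4000B scanner.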
In the case of “GCAGCATCACTCCATGTTCTCTCTTCCTACTCTCCATACTCGGAGTCACCTAGTGCAG”, the binding signal is 16800 fluorescence intensity (a.u.).

Consider “GACCGGTCCAACCGCTAACCTACAAATACCCGCCTCGCTTCGGAGTCACCTAGTGCAG”, for which the binding signal is 8490 fluorescence intensity (a.u.).

Take “GCTACATATATTCTTCGGCTCGATCAAACATACATCCTTCCGGAGTCACCTAGTGCAG”: the binding signal was 10100 fluorescence intensity (a.u.).

Turning to “ACATTTATCGTTTTATAAAATTTTCTCTCGTATATATTCCCGGAGTCACCTAGTGCAG”, the binding signal was 9140 fluorescence intensity (a.u.).

Take “ATTTTACTCTTTTGACTATATTGGTTCGGTTGAAGTTTTACGGAGTCACCTAGTGCAG”: the binding signal is 23100 fluorescence intensity (a.u.).

Regarding “ATATATATATATATATCCATATTCCTTCCCCTCGCACTGTCGGAGTCACCTAGTGCAG”, the binding signal was 10100 fluorescence intensity (a.u.).

“TCTGATGGGCGCTGGCTATCAATGTATGTCACTGTGTTGTCGGAGTCACCTAGTGCAG”: the binding signal was 8230 fluorescence intensity (a.u.).

Turning to “CCACCTTGCTCAACGCGTTGTCGCTGTCCTGGTCGCCTTCCGGAGTCACCTAGTGCAG”, the binding signal was 8720 fluorescence intensity (a.u.).

On to “ACCTCCTCTTCCCATCTCGCCTCACGCCATTTTTCATTGCCGGAGTCACCTAGTGCAG”, for which the binding signal was 11200 fluorescence intensity (a.u.).

Regarding “AGGACCACGTATTACCCGTACAAATTAGCAACCGCGCGCGCGGAGTCACCTAGTGCAG”, the binding signal was 9030 fluorescence intensity (a.u.).

Turning to “CGCCGTGTCCCTGCTCCAGAACCGCGCCCACGTCGTCTTCCGGAGTCACCTAGTGCAG”, the binding signal was 10500 fluorescence intensity (a.u.).

With “CCGGCCGCCGCCTCTGACCTTACGTATAATTTTTCTTTCCCGGAGTCACCTAGTGCAG”, the binding signal was 11400 fluorescence intensity (a.u.).

In the case of “TTTGTGTGGAGGGTGGTTTGTAATATCTCTTCCACCCCTACGGAGTCACCTAGTGCAG”, the binding signal was 8250 fluorescence intensity (a.u.).

Turning to “CATTACTCTACTCCACTGATTATTCTTGTCTTGTTAGTATCGGAGTCACCTAGTGCAG”, the binding signal is 9800 fluorescence intensity (a.u.).

Regarding “CTCCCTGTGGGCTTTCTACCTCATCCTAGCAATCTCCATGCGGAGTCACCTAGTGCAG”, the binding signal was 8620 fluorescence intensity (a.u.).

As for “GCATGGTGGCGGCGGGAAGGAGGAGTGGGGCGGCGGGTGCCGGAGTCACCTAGTGCAG”, the binding signal was 16100 fluorescence intensity (a.u.).

As to “GGTGGCGCGACTTCTTCCTCTTTCTCTTTTGCTTTCCTGGCGGAGTCACCTAGTGCAG”, the binding signal is 8760 fluorescence intensity (a.u.).

On to “GCTGACCATTGATTGATTCCCATAATTACCTAGAGAACTTCGGAGTCACCTAGTGCAG”, for which the binding signal was 8300 fluorescence intensity (a.u.).

Take “CTTCACACACGCCATAACCCATATCTTACACAGACATGTGCGGAGTCACCTAGTGCAG”: the binding signal is 8760 fluorescence intensity (a.u.).

Turning to “GGCGCTTCTAGGGTTTGGTGGGGTTCGGGCGGGCGCGCCGCGGAGTCACCTAGTGCAG”, the binding signal was 15600 fluorescence intensity (a.u.).

For the sequence “ACCTTAATTCATCCCAGCGCACACATTCAGGCATTTGTTTCGGAGTCACCTAGTGCAG”, the binding signal is 8460 fluorescence intensity (a.u.).

Take “ATTCGCGGCTTTAATCTCATTTGTATACATGGATTGACTACGGAGTCACCTAGTGCAG”: the binding signal is 9310 fluorescence intensity (a.u.).

Turning to “GTCCGTCTGCTTGTATTCGAAACCCCAACTTATCTTGTGTCGGAGTCACCTAGTGCAG”, the binding signal is 10400 fluorescence intensity (a.u.).
